In PMC10931843:
No constants are given. Whether binding was seen depends on the method and setting. Some binding calls cover weakened binding; strength is not graded here. For some assays here: Where a sequence is shown, tags or fusion partners need not be part of it.

T1: SlMADS1 (tomato (Solanum lycopersicum)), Q7Y040
T1 chain: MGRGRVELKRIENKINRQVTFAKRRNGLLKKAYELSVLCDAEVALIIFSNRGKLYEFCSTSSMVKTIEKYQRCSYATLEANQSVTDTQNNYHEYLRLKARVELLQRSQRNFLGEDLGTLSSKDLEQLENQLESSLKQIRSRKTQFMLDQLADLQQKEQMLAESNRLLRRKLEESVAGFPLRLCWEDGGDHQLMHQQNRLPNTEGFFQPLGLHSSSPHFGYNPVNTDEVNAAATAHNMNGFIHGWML

B1: SlMBP21, K4DEK0 1-250 (protein)
chain: MGRGRVELKRIENKINRQVTFAKRRNGLLKKAYELSILCDAEVALIIFSSRGKLYEFSSASSMMTTLEKYQQCSYASLDPMLPVSDTQMNYNEYVRLKARVELLQRSQRHILGEDLGTLNSKELEQLEHQLDASLKKVRSKKTQSMLDQLADLQEKEQMLEEANKQLKNKLEESAARIPLGLSWGNNGGQTMEYNRLPPQTTAQPFFQPLRLNSSSPQFGYNPNMGANDHEVNAATTAHNINGFIPGWML

What was measured:
[1] = target: SlMBP21 (tomato (Solanum lycopersicum)) (UniProt K4DEK0); assay: two-hybrid; … GAL4 Two-Hybrid System III; baits in pGBKT7 in yeast Y2Hgold, preys in pGADT7 in yeast Y187; growth on QDO (SD lacking Trp, Leu, His, adenine) and blue colour on QDO/X (with X-alpha-Gal)
[2] = target: T1, SlMADS1 (tomato (Solanum …)); assay: as above; conditions: remark: other sources report otherwise

| Molecule | binding [1] | binding [2] |
| --- | --- | --- |
| SlMBP21 (from UniProt K4DEK0 1-250) | binds | – |
| B1 | – | no binding |
